{"source": "PubChem BioAssay AID1508600", "about": "(Functional Genomics Laboratory (NCATS/FGL), 2020)", "note": "Screen size: about 53,000 sequences; about 3,700 (7%) were called active.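 Rule for the calls: active = gene knockdowns whose robust z-score for IL-1 alpha signal is at least 2 or at most -2, so actives lie on both sides; inactive = the rest.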 The list shows a part of the results.", "data": [{"assay": "Components of the Cytosolic LPS Sensing Pathway: Gene Identification via Genome-wide siRNA Screen;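 note: robust z of the log signal after scaling to non-targeting control siRNA wells of the plate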", "conditions": "RAW264.7 macrophages, IL-1a HTRF, actives lie on both sides, screened at 100 nM (by protocol), cells primed 5 h with Pam3CSK4 first", "in_short": "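Supernatant IL-1a by HTRF from RAW264.7 cells primed with Pam3CSK4 (5 hours) and transfected with LipidA (24 hour) after 48h siRNA knockdown at 100 nM; cell viability checked with CellTiter-Glo.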", "values": [{"sequence": "GGUCUGUAACUGGUUCAUCTT against Tgif1", "z-score": "inactive: 0.255"}, {"sequence": "GGACUUACUCUCUCCGUGUTT against Marchf3", "z-score": "inactive: 0.608"}, {"sequence": "GCUACAAUUGGCCUUAUCUTT against Stpg2", "z-score": "active: -3.03"}, {"sequence": "GGGUUCAAGAAAUGAUAAUTT against F11", "z-score": "inactive: 0.534"}, {"sequence": "GCAGUAUAACUAUCUGAAATT against Rgp1", "z-score": "inactive: 1.24"}, {"sequence": "GCAAAAGUAAGGAGUCUAUTT against Clcn4", "z-score": "inactive: -0.0173"}, {"sequence": "GGCAACUUUGUUAUAUACATT against Ctr9", "z-score": "inactive: 0.212"}, {"sequence": "GGCUAUGUAGAUGGUUUUGTT against B830017H08Rik", "z-score": "active: 2.65"}, {"sequence": "CCUGGACAACCAACACUUATT against Pex13", "z-score": "inactive: 1.2"}, {"sequence": "GGAUUUGGCCAACUCACCCTT against Acpp", "z-score": "inactive: 1.64"}, {"sequence": "GGUUCCUAGAAAGAAAGUGTT against Pla2g15", "z-score": "inactive: 0.0698"}, {"sequence": "GGAGUUCCUGGAGAAGAAATT against Chmp4b", "z-score": "inactive: -0.61"}, {"sequence": "GAUCUUGGUUAUUCUACAUTT against Olfr1047", "z-score": "inactive: 0.0987"}, {"sequence": "GAGCUGCUAAUGGAACCCUTT against Rhbdd3", "z-score": "inactive: -1.53"}, {"sequence": "GCAAAAAUCGACUAAAGAGTT against Lingo2", "z-score": "inactive: -0.362"}, {"sequence": "GGAGCUUCGAAACUACAUGTT against Tmem132a", "z-score": "inactive: -0.679"}, {"sequence": "GGACCUACAGCAUGGUAACTT against Pex3", "z-score": "inactive: -1.02"}, {"sequence": "GGAUAGCUGCGUAUGCCUATT against Lamtor1", "z-score": "inactive: -0.391"}, {"sequence": "GGAGCUGUGGAAGAAGUUCTT against Tbx4", "z-score": "inactive: -0.384"}, {"sequence": "GGGAGAAUAUCAUGACCAATT against E330018D03Rik", "z-score": "inactive: 0.833"}, {"sequence": "GGCACAAGUAAAGGUAGUCTT against A26c3", "z-score": "inactive: 1.01"}, {"sequence": "GGACCAGAAACUGUAUGCATT against Wrn", "z-score": "inactive: -0.7"}, {"sequence": "GGCCUUCAAAUCAUACGCUTT against Ms4a19", "z-score": "inactive: 0.283"}, {"sequence": "GCUUGUACGAUGUUACCCATT against Fbxo32", "z-score": "inactive: 0.673"}, {"sequence": "GGAGUCGUAUGAUAACAGATT against Cir1", "z-score": "inactive: 0.192"}, {"sequence": "GGCUCACGAGGAACUAAAUTT against Ift52", "z-score": "inactive: 0.115"}, {"sequence": "GCCAAAUUAGCAGCUUGUGTT against Rln3", "z-score": "inactive: -0.0674"}, {"sequence": "GGACAGAAAGAACUUGUCGTT against Sema5a", "z-score": "inactive: -0.773"}, {"sequence": "CGCAGCAGUUGUGGUCAAUTT against Nnat", "z-score": "inactive: -1.23"}, {"sequence": "GGUAAAAUUCCAGAGUUGUTT against Serpinb9", "z-score": "inactive: -0.412"}, {"sequence": "GGACAAGAGGCUUUCAUAUTT against Gabrb1", "z-score": "inactive: -0.405"}, {"sequence": "GGGAGAUUUGUUCUAGUUUTT against E2f2", "z-score": "inactive: -0.402"}, {"sequence": "GGAGCAUUAGUCAUUGUUATT against Hsd17b4", "z-score": "inactive: 1.82"}, {"sequence": "GGAAAGUGGAAGACAUUUUTT against Olfr1324", "z-score": "inactive: 0.0724"}, {"sequence": "GGAUAGACUGGACAGCAGCTT against Retn", "z-score": "inactive: -0.276"}, {"sequence": "GGGAGAUGCAACCUCUCUUTT against Dennd5b", "z-score": "active: 2.91"}, {"sequence": "GGACAUGGUCCUUCCUAAATT against Arl8b", "z-score": "inactive: 0.944"}, {"sequence": "GGUGAUCUUCAAAUUGGAGTT against Zfp90", "z-score": "inactive: -1.19"}, {"sequence": "GGACUGUUUUGUCUUGAAGTT against Gm5124", "z-score": "inactive: -1.04"}, {"sequence": "UCGACUACCUUUGAGUCAGTT against Hoxa4", "z-score": "inactive: -0.107"}, {"sequence": "GUUUCAAGUAUGUUCUGCATT against A430072C10Rik", "z-score": "inactive: -0.476"}, {"sequence": "CGGUACAGGGUAAAGGACATT against Prss41", "z-score": "inactive: 0.00568"}, {"sequence": "GGAAUGUACCAGAAAUACUTT against 4921504E06Rik", "z-score": "active: 3.01"}, {"sequence": "GGAAGAUGGAUUGUUUCUUTT against F5", "z-score": "inactive: 0.653"}, {"sequence": "CCGCAUCCAGGUUACUACATT against Adcy5", "z-score": "inactive: 1.04"}, {"sequence": "GCUUGCAUGUACAGACAUUTT against Olfr517", "z-score": "inactive: 0.398"}, {"sequence": "GGAGCUGUUCAGACCCAUUTT against E2f7", "z-score": "inactive: -0.209"}, {"sequence": "AACCAUGAUGCUUACGUUUTT against S100a10", "z-score": "inactive: 0.285"}, {"sequence": "GUUGCUCAAAGUGUCCAAGTT against Rpl36", "z-score": "inactive: 0.994"}, {"sequence": "CCUAAACCUUUAAAUCAGUTT against Gsdma", "z-score": "inactive: -0.448"}, {"sequence": "GCUUGCUUGACCUAACUAGTT against Fbxo41", "z-score": "inactive: 1.32"}, {"sequence": "GGAAUUACGAAGCUGUGUGTT against Cdkl3", "z-score": "active: -2.36"}, {"sequence": "GGCUUCUGAUCUUACCUGGTT against Smim12", "z-score": "inactive: 0.683"}, {"sequence": "CCACACUGCAGUGUCAGAATT against Olfr490", "z-score": "inactive: 1.82"}, {"sequence": "GCAGGCCUACCUUACCCUATT against Adam32", "z-score": "inactive: -0.264"}, {"sequence": "GGACAUGACUCUAAAAAAATT against Slc44a3", "z-score": "active: 4.43"}, {"sequence": "GGUUAAUGCCCGAUGAAGGTT against Gdap1", "z-score": "inactive: -0.546"}, {"sequence": "CGUUCUAUGGAAACUGGAGTT against Acot1", "z-score": "active: 2.42"}, {"sequence": "GGUAUUUCCUAAGUUGCGCTT against Sgsm1", "z-score": "inactive: 1.34"}, {"sequence": "CCGAAUGUGCCUUUAAGAATT against Sema4a", "z-score": "inactive: 1.06"}, {"sequence": "GCUCACCAAGGUCAACUUUTT against Pramel37", "z-score": "inactive: 0.363"}, {"sequence": "GGCUUUUGGAGAAAAAGGATT against Nus1", "z-score": "inactive: 1.92"}, {"sequence": "GGUUUUUGAGCCAUAUCCATT against Fam122b", "z-score": "inactive: -0.817"}, {"sequence": "CCCUUUAAUACAUACAGUUTT against Mesp2", "z-score": "inactive: 1.14"}, {"sequence": "GCCACAACUUAAUUUUCUGTT against Nav3", "z-score": "inactive: -0.305"}, {"sequence": "CGCAUUUGAAGUGUUCGACTT against Efcab2", "z-score": "inactive: 0.195"}, {"sequence": "GGUAGUGUGAUCAAGACACTT against Spred2", "z-score": "inactive: 1.08"}, {"sequence": "GCACAGUCACUAGCUGAAUTT against Prr27", "z-score": "inactive: 1.1"}, {"sequence": "GGCACAAGGCAACUGACUATT against Atp2a1", "z-score": "inactive: -1.44"}, {"sequence": "GGUCCUAGGCCUACUCAUCTT against Cd46", "z-score": "inactive: -0.318"}, {"sequence": "GGAUUUUCCAGCCAAGGAATT against Smpd4", "z-score": "inactive: 0.364"}, {"sequence": "GGACAAAGAAGAUUCCAUUTT against Ctps2", "z-score": "inactive: 0.747"}, {"sequence": "GGACCUCAUGAGAAAUAUGTT against Galnt17", "z-score": "inactive: 0.871"}, {"sequence": "GAGUGCAUUCUUUUGGCAUTT against Olfr5", "z-score": "inactive: 0.508"}, {"sequence": "GAGCUGAAGAAGUGCUCUUTT against Rarres2", "z-score": "inactive: -1.62"}, {"sequence": "GGCAGUACAACUGGUCUACTT against 0610040J01Rik", "z-score": "active: 2.21"}, {"sequence": "CUCUCGAACAAUCAACCACTT against Olfr315", "z-score": "active: 2.05"}, {"sequence": "GCUGGCUAGCCAUAACCAUTT against Spata21", "z-score": "inactive: 1.02"}, {"sequence": "GCAAGUGAGUUAGCAGUCATT against Atp2c1", "z-score": "active: -2.23"}, {"sequence": "GCAACGAUCUGAGAAAAUUTT against Intu", "z-score": "inactive: -0.593"}, {"sequence": "GGUCAUUUCCUUCGCUGGATT against Olfr739", "z-score": "inactive: -0.962"}, {"sequence": "GGAUUUGUGUCCAUCGUGCTT against Olfr66", "z-score": "inactive: 0.00905"}, {"sequence": "GGAGCUGUCUCUACGAAACTT against Myoz3", "z-score": "inactive: 1.27"}, {"sequence": "GGGAGAAAUUCUGUAUUCATT against Aldh5a1", "z-score": "inactive: -1.1"}, {"sequence": "GGAGUCUAAGUUAUAAUCUTT against Mtg1", "z-score": "inactive: 2"}, {"sequence": "GCCGAUGAAGCCUUAUUGCTT against Bfsp1", "z-score": "inactive: 0.624"}, {"sequence": "GCGACUGAGUGACUAUGCUTT against Kcnn3", "z-score": "inactive: -1.59"}, {"sequence": "GCAGGUUAGAGUCACUUGUTT against Trim67", "z-score": "inactive: 0.143"}, {"sequence": "GGUUCCUACGCUUCAUUCCTT against Cntnap4", "z-score": "inactive: 1.35"}, {"sequence": "GGAGUCUUAAAAGCAAAGATT against Serpinb11", "z-score": "inactive: -0.0719"}, {"sequence": "GGCUCAAAGAAUAUGCCAATT against Rad54b", "z-score": "inactive: 0.99"}, {"sequence": "GCCAGAAUUUUAGCUAGUATT against Steap4", "z-score": "inactive: 0.338"}, {"sequence": "GUUAACCAAAACAAAGGCUTT against H2ac4", "z-score": "inactive: -1.02"}, {"sequence": "CGUGUGUUACUUCUCAGACTT against Crtam", "z-score": "inactive: 1.15"}, {"sequence": "GAUUACCCAACGUACAGCUTT against Krt74", "z-score": "inactive: -1.1"}, {"sequence": "GGUCCUACAUAAUACAACATT against Myo19", "z-score": "inactive: 0.902"}, {"sequence": "CGGAUAUUUGGCAUGGUCCTT against Slc5a4b", "z-score": "inactive: 1.25"}, {"sequence": "GGCAACAACACAUUCAGAGTT against Enah", "z-score": "inactive: 0.713"}, {"sequence": "GGAGCCUGUCUUUUAUUGATT against Olfr938", "z-score": "inactive: 0.0765"}, {"sequence": "GGGAUGCACUGAGUGAAGATT against Scg2", "z-score": "inactive: -0.319"}, {"sequence": "GGAAAUUGUACUCUCCACATT against Pdzd11", "z-score": "inactive: -0.941"}, {"sequence": "CUCUGAACGACCUAUACCUTT against Cebpd", "z-score": "inactive: -1.21"}, {"sequence": "CCAAGCUAGUCCUCAAGCUTT against Snapc2", "z-score": "inactive: -1.16"}, {"sequence": "GGAACUACAGAAUUUAUUGTT against Rfx6", "z-score": "inactive: 0.628"}, {"sequence": "GGUCUAUGUGUGGAUGGAATT against Crb1", "z-score": "inactive: 1.83"}, {"sequence": "GGAUUCACACAGAGGUAAATT against Zfp169", "z-score": "inactive: -0.215"}, {"sequence": "GCCGACAGAUCGUCUUGAUTT against Tmc4", "z-score": "inactive: 1.31"}]}]}
